# In patent US20130079370A1, “Method for the Inhibition of Deubiquitinating Activity” (priority 2011, published 2013):
# Test system: MCF7 cells
# Assay: Connectivity Map (CMAP) analysis of b-AP15 expression signature
# Conditions: similarity of database compound signature to that of MCF7 cells treated with b-AP15 (1 μM, 6 h)
row,Structure (SMILES),CMAP Score
1,CC1=C(CO)C(=O)O[C@@H]([C@@H](C)[C@H]2CC[C@H]3[C@@H]4C[C@H]5O[C@]56[C@@H](O)C=CC(=O)[C@]6(C)[C@H]4CC[C@]23C)C1 [Withaferin A],0.922
2,CC(C)C[C@H](NC(=O)[C@H](CC(C)C)NC(=O)[C@H](CC(C)C)NC(=O)OCc1ccccc1)B(O)O [MG-262],1
3,CCCCC/C=C/C=C1/C(=O)C=C[C@@H]1C/C=C\CCCC(=O)O [15 Δ prostaglandin J2],0.999 and 0.940

# Where “and” joins values, the source holds several entries; their conditions need not be identical. Identical values can stand only once.
